About 3,700 (7%) of roughly 53,000 sequences were called active.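 The calls were made as follows: active = gene knockdowns whose robust z-score for IL-1 alpha signal is at least 2 or at most -2, so actives lie on both sides; inactive = the rest.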 Some of the results follow.

The experiment is described as follows: Components of the Cytosolic LPS Sensing Pathway: Gene Identification via Genome-wide siRNA Screen.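 Also: robust z of the log signal after scaling to non-targeting control siRNA wells of the plate.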 The settings on record: RAW264.7 macrophages, IL-1a HTRF, actives lie on both sides, screened at 100 nM (by protocol), cells primed 5 h with Pam3CSK4 first. Put shortly:
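Cells (RAW264.7, 1×10^4 per well) were transfected with siRNA at 100 nM and cultured 48h at 37 degrees C. Pam3CSK4 was added for 5 hours; LipidA transfection followed for 24 hour. IL-1a was then measured by HTRF.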
(In general: In TR-FRET formats the signal depends on donor and acceptor labels being close together.)
GGACCAGAGGAGAUUUCAATT against Ern2: the z-score was inactive: 1.56.

On to GGAAACCCAUUCACAAAUCTT against Tfec, for which the z-score was inactive: 0.798.

Take GCCUUGAGACAAUGAGACATT against Ambn: the z-score was inactive: -0.651.

As for GCUCAGAGACAAGCAACUGTT against Kcnk7, the z-score is inactive: 0.247.

“CGUGUCUGAAGGACUACAATT against 1700052K11Rik”: the z-score is inactive: 0.0454.

As for GGUGCUGGAGUUCAUGUACTT against Zbtb17, the z-score was inactive: -0.172.

In the case of GGAAUUGUAUUACUUUGAGTT against Tm9sf1, the z-score is inactive: -0.473.

Regarding GGUGGUAAAUAAUUAAGGATT against Clec14a, the z-score was inactive: 0.623.

In the case of CCGGACCUUAUUGUCAUUUTT against Higd2a, the z-score was inactive: -0.943.

As for UAGGACAGGGAAAAAACUATT against Olfr1065, the z-score was inactive: 1.01.

Take GGACAAAAUAGAGUGGAUCTT against Ropn1l: the z-score is inactive: -0.202.

As for CGAGCUUUCUUCGUACACCTT against Dvl2, the z-score was inactive: -1.74.

For GCGGGUUAAUUAUCAACUUTT against Agpat3, the z-score was inactive: 0.071.

For GGACAUUGUCAAUAUGCUCTT against Pygm, the z-score was inactive: 0.633.

Consider GGUAAUCAAAGAAGUCAAGTT against Dnaja2, for which the z-score is inactive: 1.99.

For GGCCUGAGUAUAAAGUUAGTT against Wbp2, the z-score is inactive: 1.6.

Turning to GGGAUGAACUAUUGGCAGGTT against Lyzl1, the z-score is inactive: -0.679.

Take CAGUGCUCAUCAAUAUUGATT against Olfr1163: the z-score was inactive: -0.188.

In the case of CCACCCUUCUUCUAUCGAATT against Ybx2, the z-score was inactive: -1.11.

In the case of CGUGAGUGUCCAUGUGACCTT against C4a, the z-score is inactive: -1.23.

On to GCUGUUGAUUGGUCAACUATT against Lmnb1, for which the z-score was inactive: -1.08.

For CCAACACGCGCUCUUUUGATT against Ccdc177, the z-score was inactive: 0.196.

Take GGAGUAUAAUGCCUUGGUUTT against Aamdc: the z-score is inactive: 0.113.

For the sequence CGAACUACUGACCCAGCUUTT against Ocstamp, the z-score is inactive: -1.85.

Take GGUGUACCAGCAUAGCUGUTT against Hps5: the z-score is inactive: 1.24.

In the case of GGGACCUUGGAUUGUGUUGTT against Pla2g10, the z-score is inactive: 0.8.

On to GGCCUUUAAAACUCCUGAATT against Lzic, for which the z-score is inactive: 0.223.

Regarding GGACAUGAAGAUAGCAAUUTT against Olfr424, the z-score is inactive: 0.0469.

Take “GCAUGCGUGUCCAUCACAUTT against A730036I17Rik”: the z-score is inactive: -0.426.

In the case of GCUUACUUGGUGCUCGUGUTT against Mettl21e, the z-score is inactive: 1.95.

As for GGAAAUUAUUCCAAGGUCUTT against Mepce, the z-score is inactive: 0.532.

For CCCUGUUAAGUCAACUAUGTT against Actl7a, the z-score is inactive: 0.625.

Turning to GCACAACAAGACUUUUCUCTT against Epm2a, the z-score was inactive: 0.0872.

In the case of GGAUGUUGGCCUCUUUCUCTT against Olfr53, the z-score was inactive: -0.137.

In the case of GGACAAGUCCACAGUGUUUTT against Lss, the z-score is inactive: 1.68.

Consider GCAGUCCUCCAUUAAGGUATT against Nr4a2, for which the z-score is inactive: 0.971.

For the sequence GGUAGAAGAGAACUGGACATT against Oas1a, the z-score is inactive: 0.228.

For GGAAACAUGAUCAUUUUGATT against Olfr1179, the z-score is inactive: 0.49.

Consider GGUUCUUGCUGAGAGCAUGTT against Rft1, for which the z-score was inactive: 0.943.

In the case of GGUCCUGAUGAAGAACGUGTT against Polr3e, the z-score was inactive: 0.849.

Regarding GCUAAGUACAGCAAGGACUTT against Abt1, the z-score is inactive: -1.76.

For the sequence GGCUGUCCAUUUUCUUAUCTT against Stc2, the z-score was inactive: 0.128.

With GCGAAAUUCUGAAAAAGCCTT against Abca12, the z-score was inactive: 1.37.

In the case of CCUUGCUUCGCCUACUUCUTT against Rab3ip, the z-score was inactive: 0.0561.

As for GGAAACAAGACAUAAUAGGTT against Fbxo42, the z-score was inactive: 0.458.

With GCCUUACACUUUCCUACAATT against Lrrc41, the z-score is inactive: 0.894.

For GCCUACAAUCUGAAUGAAGTT against Ctla2a, the z-score was inactive: 0.796.

GGAGAUAAAAAUCCAAGCATT against Stx19: the z-score is inactive: 0.274.

With GGACAUCAGUAUGAAUAAGTT against Wdr92, the z-score was inactive: -0.728.

On to GGGAUUUGCUUCAACCUGGTT against Tmem128, for which the z-score was inactive: -0.69.

Consider GGUAUCUGUGUGACUUCACTT against Pgpep1, for which the z-score was active: 3.63.

With GCCUAGCUAUAUUAAACUCTT against Inpp5e, the z-score was inactive: -0.119.

Consider GGAUGUGAUGGCGACUCUATT against Frmpd3, for which the z-score is inactive: 1.66.

GCUGUGAAAUGUUACUGCUTT against Slc10a5: the z-score is inactive: 0.954.

Consider GGACAAAUUACAGGAUUAATT against Sod1, for which the z-score was inactive: 0.424.

As to GCGUAUGUACCGAUGGCAGTT against Mocs2, the z-score is inactive: 0.871.

With GCAGAAAGAAACGUAAAUGTT against Dhx57, the z-score was inactive: 0.464.

With GCGAAGCGUGCUGCUAAGATT against Ccdc59, the z-score was inactive: 0.519.

GGUCUAAUCCAGAAUCAGUTT against Ppm1f: the z-score was inactive: 0.735.

As to GGUACUGAAGGAAAUCUCUTT against Nek11, the z-score was inactive: 0.659.

For GGAGGUUAAAUUUUUCAGATT against Ubr2, the z-score was inactive: 0.196.

Consider CCCAUAAUGGACUAAAACUTT against Tjp2, for which the z-score was inactive: -0.738.

In the case of GGCUCUCUGGAGAAUCAUGTT against Slc25a28, the z-score is inactive: 0.0751.

On to GGACUACCUACUGAGCAACTT against Disc1, for which the z-score is inactive: -0.16.

Consider GGUGUAAAAUGUAAAGCUGTT against Hpgd, for which the z-score was inactive: -1.75.

On to GCAGCAGCAGGUGUCUAUGTT against Nanos3, for which the z-score was inactive: -0.793.

Regarding GGAGCUGGUCUUUUUUUUUTT against Rhobtb2, the z-score is inactive: 0.614.

GGAGACGUGUCAACAUUUUTT against Tob1: the z-score is inactive: 0.842.

For the origin of these results see PubChem BioAssay AID1508600 (Functional Genomics Laboratory (NCATS/FGL), 2020).
